Results published in the supplement of paper PMC10849652.
The other results are listed elsewhere or left out.

Chains of the proteins cited; added tags and fusions are not shown. Lines headed by an entry give the natural chain unless they say otherwise; changes in a name come on top.
UniProt P62304, whole entry, looked up: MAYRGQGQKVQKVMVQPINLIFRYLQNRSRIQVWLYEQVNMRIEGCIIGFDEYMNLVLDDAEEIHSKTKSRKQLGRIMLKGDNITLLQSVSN
UniProt P51532, whole entry, looked up: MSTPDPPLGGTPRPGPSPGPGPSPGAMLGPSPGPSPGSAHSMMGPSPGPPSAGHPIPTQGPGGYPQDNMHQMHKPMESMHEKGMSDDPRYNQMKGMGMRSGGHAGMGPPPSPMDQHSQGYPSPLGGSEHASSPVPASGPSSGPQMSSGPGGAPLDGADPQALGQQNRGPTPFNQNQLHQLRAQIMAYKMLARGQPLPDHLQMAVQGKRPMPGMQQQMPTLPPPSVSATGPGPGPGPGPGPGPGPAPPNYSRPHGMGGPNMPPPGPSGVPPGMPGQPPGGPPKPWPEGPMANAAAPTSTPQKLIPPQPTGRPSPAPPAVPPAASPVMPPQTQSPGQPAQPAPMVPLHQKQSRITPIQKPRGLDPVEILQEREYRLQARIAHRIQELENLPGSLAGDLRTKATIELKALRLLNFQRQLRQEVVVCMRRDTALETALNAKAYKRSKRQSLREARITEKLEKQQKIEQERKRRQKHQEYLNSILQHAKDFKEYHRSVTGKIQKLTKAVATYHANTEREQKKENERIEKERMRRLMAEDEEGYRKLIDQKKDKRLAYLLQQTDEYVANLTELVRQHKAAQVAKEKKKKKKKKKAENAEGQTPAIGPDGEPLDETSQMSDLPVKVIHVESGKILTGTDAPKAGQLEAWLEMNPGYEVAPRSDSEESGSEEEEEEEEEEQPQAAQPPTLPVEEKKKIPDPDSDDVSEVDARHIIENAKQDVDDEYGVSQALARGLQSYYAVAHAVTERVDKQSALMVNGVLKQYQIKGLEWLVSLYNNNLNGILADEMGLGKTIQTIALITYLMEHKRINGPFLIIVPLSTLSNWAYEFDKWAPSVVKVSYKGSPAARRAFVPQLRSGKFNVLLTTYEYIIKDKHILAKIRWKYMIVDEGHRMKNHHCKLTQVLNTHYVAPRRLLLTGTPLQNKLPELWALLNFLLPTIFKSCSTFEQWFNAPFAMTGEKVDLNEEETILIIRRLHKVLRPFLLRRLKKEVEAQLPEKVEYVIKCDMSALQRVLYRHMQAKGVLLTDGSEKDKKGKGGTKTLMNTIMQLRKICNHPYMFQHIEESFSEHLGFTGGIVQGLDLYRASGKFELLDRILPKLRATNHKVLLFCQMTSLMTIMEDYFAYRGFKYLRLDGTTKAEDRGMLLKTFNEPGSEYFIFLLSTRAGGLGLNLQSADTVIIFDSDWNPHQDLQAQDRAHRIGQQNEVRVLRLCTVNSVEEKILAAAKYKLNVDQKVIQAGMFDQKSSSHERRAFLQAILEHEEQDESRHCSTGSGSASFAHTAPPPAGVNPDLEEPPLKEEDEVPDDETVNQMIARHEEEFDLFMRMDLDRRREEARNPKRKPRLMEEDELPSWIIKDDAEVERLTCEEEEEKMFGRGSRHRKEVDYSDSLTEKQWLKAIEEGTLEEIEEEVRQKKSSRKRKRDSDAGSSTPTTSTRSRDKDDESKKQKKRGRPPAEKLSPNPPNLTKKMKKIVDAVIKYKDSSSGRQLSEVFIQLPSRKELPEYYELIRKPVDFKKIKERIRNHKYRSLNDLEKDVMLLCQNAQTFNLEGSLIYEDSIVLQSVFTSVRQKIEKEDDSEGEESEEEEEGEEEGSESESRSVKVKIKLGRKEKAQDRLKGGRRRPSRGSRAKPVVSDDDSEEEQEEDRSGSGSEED
UniProt Q92922, whole entry, looked up: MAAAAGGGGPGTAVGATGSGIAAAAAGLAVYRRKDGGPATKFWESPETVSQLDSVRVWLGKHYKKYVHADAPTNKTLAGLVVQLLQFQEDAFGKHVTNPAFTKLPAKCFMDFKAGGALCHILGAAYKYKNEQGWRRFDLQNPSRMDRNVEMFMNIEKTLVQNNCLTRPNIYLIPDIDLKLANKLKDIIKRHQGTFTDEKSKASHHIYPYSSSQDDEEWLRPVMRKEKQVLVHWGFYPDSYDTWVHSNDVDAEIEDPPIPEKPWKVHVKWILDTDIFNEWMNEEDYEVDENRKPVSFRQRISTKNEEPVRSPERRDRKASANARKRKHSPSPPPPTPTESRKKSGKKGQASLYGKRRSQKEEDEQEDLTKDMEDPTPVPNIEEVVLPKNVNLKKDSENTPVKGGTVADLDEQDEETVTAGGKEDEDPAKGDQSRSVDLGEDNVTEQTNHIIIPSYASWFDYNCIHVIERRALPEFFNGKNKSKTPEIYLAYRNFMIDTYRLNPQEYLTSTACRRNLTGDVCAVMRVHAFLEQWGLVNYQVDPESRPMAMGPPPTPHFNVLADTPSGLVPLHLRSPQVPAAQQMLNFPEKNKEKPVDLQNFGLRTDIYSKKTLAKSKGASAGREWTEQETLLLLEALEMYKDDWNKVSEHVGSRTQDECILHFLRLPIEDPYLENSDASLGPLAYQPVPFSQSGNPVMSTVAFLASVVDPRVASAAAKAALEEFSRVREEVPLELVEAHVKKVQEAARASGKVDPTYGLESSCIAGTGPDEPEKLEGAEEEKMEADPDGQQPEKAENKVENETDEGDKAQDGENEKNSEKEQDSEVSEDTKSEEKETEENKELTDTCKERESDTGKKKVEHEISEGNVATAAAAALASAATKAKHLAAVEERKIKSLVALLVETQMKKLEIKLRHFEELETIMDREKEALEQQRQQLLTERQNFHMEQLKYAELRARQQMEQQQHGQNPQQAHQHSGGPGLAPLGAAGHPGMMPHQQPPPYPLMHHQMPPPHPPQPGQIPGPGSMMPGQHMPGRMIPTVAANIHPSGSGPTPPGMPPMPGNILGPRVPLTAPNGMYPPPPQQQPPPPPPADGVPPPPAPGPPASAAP
UniProt Q8TAQ2, whole entry, looked up: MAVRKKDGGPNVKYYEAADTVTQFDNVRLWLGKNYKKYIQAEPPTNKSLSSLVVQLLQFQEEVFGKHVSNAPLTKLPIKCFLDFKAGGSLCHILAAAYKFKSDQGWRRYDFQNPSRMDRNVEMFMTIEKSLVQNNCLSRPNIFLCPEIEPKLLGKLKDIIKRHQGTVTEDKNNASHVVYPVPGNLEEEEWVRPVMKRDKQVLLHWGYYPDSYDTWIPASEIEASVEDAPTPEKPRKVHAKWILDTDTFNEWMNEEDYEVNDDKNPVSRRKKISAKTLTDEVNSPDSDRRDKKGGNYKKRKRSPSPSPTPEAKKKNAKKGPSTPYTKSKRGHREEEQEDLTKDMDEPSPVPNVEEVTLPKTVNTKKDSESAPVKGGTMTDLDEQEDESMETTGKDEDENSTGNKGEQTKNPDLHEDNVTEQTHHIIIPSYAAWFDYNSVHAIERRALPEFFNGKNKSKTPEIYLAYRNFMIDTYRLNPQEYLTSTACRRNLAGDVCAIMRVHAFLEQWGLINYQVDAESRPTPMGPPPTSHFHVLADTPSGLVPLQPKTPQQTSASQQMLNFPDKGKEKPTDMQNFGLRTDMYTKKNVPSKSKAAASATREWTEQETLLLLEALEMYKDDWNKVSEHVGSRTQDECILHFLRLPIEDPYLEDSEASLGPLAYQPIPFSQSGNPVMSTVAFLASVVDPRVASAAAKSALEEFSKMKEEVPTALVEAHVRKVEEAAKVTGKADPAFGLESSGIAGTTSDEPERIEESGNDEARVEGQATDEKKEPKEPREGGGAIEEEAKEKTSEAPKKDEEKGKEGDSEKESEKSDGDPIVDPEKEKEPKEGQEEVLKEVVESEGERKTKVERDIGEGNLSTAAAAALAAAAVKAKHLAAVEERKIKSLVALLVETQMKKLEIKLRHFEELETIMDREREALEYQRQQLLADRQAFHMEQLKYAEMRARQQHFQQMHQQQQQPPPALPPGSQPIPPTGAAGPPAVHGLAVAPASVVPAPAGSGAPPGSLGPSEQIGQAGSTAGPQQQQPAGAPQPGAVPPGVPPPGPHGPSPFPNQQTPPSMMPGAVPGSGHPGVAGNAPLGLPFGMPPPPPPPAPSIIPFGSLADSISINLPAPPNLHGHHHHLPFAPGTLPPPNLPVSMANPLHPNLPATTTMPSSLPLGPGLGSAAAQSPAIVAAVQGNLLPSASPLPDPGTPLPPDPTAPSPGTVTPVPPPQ
UniProt Q9Y5X1: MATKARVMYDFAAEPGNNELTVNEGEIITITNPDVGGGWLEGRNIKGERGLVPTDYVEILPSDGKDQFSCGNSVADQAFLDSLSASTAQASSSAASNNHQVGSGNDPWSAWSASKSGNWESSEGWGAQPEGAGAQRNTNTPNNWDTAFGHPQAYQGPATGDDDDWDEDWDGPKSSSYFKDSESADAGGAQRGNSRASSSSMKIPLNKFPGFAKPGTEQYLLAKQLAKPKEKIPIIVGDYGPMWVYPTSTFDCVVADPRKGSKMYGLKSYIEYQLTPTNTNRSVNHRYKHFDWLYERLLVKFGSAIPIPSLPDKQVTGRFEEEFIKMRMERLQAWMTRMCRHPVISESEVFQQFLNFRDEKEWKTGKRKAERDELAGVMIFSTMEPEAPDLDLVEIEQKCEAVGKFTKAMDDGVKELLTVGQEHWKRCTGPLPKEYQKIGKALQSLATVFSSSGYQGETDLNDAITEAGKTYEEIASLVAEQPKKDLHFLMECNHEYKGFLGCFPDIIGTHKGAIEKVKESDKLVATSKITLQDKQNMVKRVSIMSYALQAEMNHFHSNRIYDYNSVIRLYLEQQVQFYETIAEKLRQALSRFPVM
UniProt Q8ND04: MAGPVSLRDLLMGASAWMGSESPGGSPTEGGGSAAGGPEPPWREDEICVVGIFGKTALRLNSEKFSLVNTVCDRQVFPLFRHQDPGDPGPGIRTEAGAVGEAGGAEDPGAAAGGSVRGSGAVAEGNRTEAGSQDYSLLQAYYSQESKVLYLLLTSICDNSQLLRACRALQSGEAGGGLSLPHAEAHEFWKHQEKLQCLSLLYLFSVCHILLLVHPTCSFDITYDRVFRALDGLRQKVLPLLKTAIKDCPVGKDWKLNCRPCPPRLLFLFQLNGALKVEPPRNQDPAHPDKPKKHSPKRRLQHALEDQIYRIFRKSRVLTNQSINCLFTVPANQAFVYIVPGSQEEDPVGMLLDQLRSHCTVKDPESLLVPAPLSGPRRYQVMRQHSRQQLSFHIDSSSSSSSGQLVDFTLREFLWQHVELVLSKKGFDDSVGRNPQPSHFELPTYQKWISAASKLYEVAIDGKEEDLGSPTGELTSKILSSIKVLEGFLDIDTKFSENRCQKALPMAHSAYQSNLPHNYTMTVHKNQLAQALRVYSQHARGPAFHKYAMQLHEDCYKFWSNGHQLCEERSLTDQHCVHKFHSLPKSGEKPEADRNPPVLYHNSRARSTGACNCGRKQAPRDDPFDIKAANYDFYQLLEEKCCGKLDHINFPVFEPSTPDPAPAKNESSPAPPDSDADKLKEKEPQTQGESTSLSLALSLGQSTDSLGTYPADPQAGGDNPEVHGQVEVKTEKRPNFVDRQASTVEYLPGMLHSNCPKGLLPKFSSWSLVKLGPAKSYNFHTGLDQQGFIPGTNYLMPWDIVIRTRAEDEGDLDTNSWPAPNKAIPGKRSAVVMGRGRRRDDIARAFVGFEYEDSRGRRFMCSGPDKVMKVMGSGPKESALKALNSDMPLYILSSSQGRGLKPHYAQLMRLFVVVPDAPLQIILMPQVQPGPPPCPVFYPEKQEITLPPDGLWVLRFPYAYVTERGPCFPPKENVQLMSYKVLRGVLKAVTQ
UniProt P09661: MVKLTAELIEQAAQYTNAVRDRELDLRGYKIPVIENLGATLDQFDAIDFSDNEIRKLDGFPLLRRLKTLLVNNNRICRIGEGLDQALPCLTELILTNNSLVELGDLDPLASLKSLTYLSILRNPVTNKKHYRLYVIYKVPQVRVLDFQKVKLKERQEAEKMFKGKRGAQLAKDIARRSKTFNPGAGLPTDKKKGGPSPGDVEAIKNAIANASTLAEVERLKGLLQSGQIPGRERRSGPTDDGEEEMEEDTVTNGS
UniProt P55769: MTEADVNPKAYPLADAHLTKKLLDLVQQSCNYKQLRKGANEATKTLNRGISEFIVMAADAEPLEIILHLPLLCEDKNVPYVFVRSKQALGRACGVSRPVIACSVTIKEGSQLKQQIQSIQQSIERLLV
UniProt O76070, whole entry, looked up: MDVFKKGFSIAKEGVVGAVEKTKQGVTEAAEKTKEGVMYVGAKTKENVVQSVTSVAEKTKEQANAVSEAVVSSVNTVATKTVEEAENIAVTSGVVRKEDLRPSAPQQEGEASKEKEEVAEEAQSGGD

Experiments:
Assay in all cases: log2 fold change, soluble protein after heating vs DMSO (PISA); higher = thermal stabilisation; K562 lysate, 10 uM; active = over 0.2 and 3.5 SD of the protein, either way, in both replicates (recomputed)
lapatinib = compound: CS(=O)(=O)CCNCc1ccc(-c2ccc3ncnc(Nc4ccc(OCc5cccc(F)c5)c(Cl)c4)c3c2)o1 [lapatinib]
How it was run: (§1)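 K562 pellets were dounce-homogenised in PBS pH 7.4 with 1 mM MgCl2, and the crude extract at 1 mg/mL protein was treated with 10 μM compound for 30 min. Aliquots were heated for 3 min across 48°C-58°C, pooled, and brought to 0.5% NP-40 at 4°C; soluble protein was the supernatant after 21,000xg for 90 min. Soluble protein was quantified by TMTpro 16plex LC-MS/MS with channel sums equalised, and reported as log2 fold change in thermal stability against DMSO controls, with values from duplicates.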

pictilisib = compound: CS(=O)(=O)N1CCN(Cc2cc3nc(-c4cccc5[nH]ncc45)nc(N4CCOCC4)c3s2)CC1 [pictilisib]
How it was run: as §1

crizotinib = compound: C[C@@H](Oc1cc(-c2cnn(C3CCNCC3)c2)cnc1N)c1c(Cl)ccc(F)c1Cl [crizotinib]
How it was run: as §1

[1] = compound: C[C@H](C1=CC=C(C=C1)C(=O)NC2=C3C=CNC3=NC=C2)N
How it was run: as §1

duvelisib = compound: C[C@H](Nc1ncnc2nc[nH]c12)c1cc2cccc(Cl)c2c(=O)n1-c1ccccc1 [duvelisib]
How it was run: as §1

gandotinib = compound: Cc1cc(Nc2cc(CN3CCOCC3)c3nc(C)c(Cc4ccc(Cl)cc4F)n3n2)n[nH]1 [gandotinib]
How it was run: as §1

tozasertib = compound: Cc1cc(Nc2cc(N3CCN(C)CC3)nc(Sc3ccc(NC(=O)C4CC4)cc3)n2)n[nH]1 [tozasertib]
How it was run: as §1

doramapimod = compound: Cc1ccc(-n2nc(C(C)(C)C)cc2NC(=O)Nc2ccc(OCCN3CCOCC3)c3ccccc23)cc1 [doramapimod]
How it was run: as §1

bafetinib = compound: Cc1ccc(NC(=O)c2ccc(CN3CC[C@H](N(C)C)C3)c(C(F)(F)F)c2)cc1Nc1nccc(-c2cncnc2)n1 [bafetinib]
How it was run: as §1

[2] = compound: Cc1cccc(CC(=O)N2CCc3c2ccc(-c2cn(C)c4ncnc(N)c24)c3F)n1
How it was run: as §1

nilotinib = compound: Cc1cn(-c2cc(NC(=O)c3ccc(C)c(Nc4nccc(-c5cccnc5)n4)c3)cc(C(F)(F)F)c2)cn1 [nilotinib]
How it was run: as §1

[3] = compound: Cc1nc(Nc2n[nH]c3c2CN(C(=O)N[C@H](CN(C)C)c2ccccc2)C3(C)C)c2sccc2n1
How it was run: as §1

dasatinib = compound: Cc1nc(Nc2ncc(C(=O)Nc3c(C)cccc3Cl)s2)cc(N2CCN(CCO)CC2)n1 [dasatinib]
How it was run: as §1

[4] = compound: Cc1ncc(-c2ccnc(Nc3ccc(S(C)(=O)=O)cc3)n2)n1C(C)C
How it was run: as §1

[5] = compound: Cn1cc(-c2ccc3c(c2)CCN3C(=O)Cc2cccc(C(F)(F)F)c2)c2c(N)ncnc21
How it was run: as §1

quisinostat = compound: Cn1cc(CNCC2CCN(c3ncc(C(=O)NO)cn3)CC2)c2ccccc21 [quisinostat]
How it was run: as §1

tipifarnib = compound: Cn1cncc1[C@@](N)(c1ccc(Cl)cc1)c1ccc2c(c1)c(-c1cccc(Cl)c1)cc(=O)n2C [tipifarnib]
How it was run: as §1

[6] = compound: NC(=O)Nc1cc(-c2cccc(F)c2)sc1C(=O)N[C@H]1CCCNC1
How it was run: as §1

[7] = compound: NC(=O)c1cnc(N[C@@H]2CCCC[C@@H]2N)nc1Nc1cccc(-n2nccn2)c1
How it was run: as §1

[8] = compound: NC1(c2ccc(-c3nc4ccn5c(=O)[nH]nc5c4cc3-c3ccccc3)cc2)CCC1
How it was run: as §1

| Target | log2 fold change (lapatinib) | log2 fold change (pictilisib) | log2 fold change (crizotinib) | log2 fold change [1] | log2 fold change (duvelisib) | log2 fold change (gandotinib) | log2 fold change (tozasertib) | log2 fold change (doramapimod) | log2 fold change (bafetinib) | log2 fold change [2] | log2 fold change (nilotinib) | log2 fold change [3] | log2 fold change (dasatinib) | log2 fold change [4] | log2 fold change [5] | log2 fold change (quisinostat) | log2 fold change (tipifarnib) | log2 fold change [6] | log2 fold change [7] | log2 fold change [8] |
| --- | --- | --- | --- | --- | --- | --- | --- | --- | --- | --- | --- | --- | --- | --- | --- | --- | --- | --- | --- | --- |
| SMC5 (UniProt Q8IY18) | inactive: -0.014 | inactive: -0.013 | inactive: -0.027 | inactive: -0.043 | inactive: 0.054 | inactive: 0.023 | inactive: -0.008 | inactive: -0.017 | inactive: -0.008 | inactive: 0.071 | inactive: 0.001 | inactive: 0.009 | inactive: -0.015 | inactive: 0.004 | inactive: 0.006 | inactive: -0.027 | inactive: -0.041 | inactive: 0.025 | inactive: 0.006 | inactive: 0.015 |
| SMC4 (UniProt Q9NTJ3) | inactive: -0.028 | inactive: -0.002 | inactive: -0.007 | inactive: 0.068 | inactive: 0.009 | inactive: -0.154 | inactive: -0.012 | inactive: -0.026 | inactive: -0.021 | inactive: -0.051 | inactive: -0.01 | inactive: 0.009 | inactive: -0.03 | inactive: 0.016 | inactive: 0.003 | inactive: -0.014 | inactive: -0.003 | inactive: 0.027 | inactive: 0.009 | inactive: -0.023 |
| SP3 (UniProt Q02447) | inactive: -0.008 | inactive: -0.001 | inactive: -0.002 | inactive: 0.12 | inactive: 0.037 | inactive: 0.038 | inactive: 0.023 | inactive: 0.026 | inactive: -0.061 | inactive: -0.06 | inactive: -0.005 | inactive: 0.19 | inactive: -0.188 | inactive: 0.227 | inactive: -0.104 | inactive: 0.081 | inactive: -0.072 | inactive: -0.069 | inactive: 0.031 | inactive: -0.03 |
| SMTN isoform 6 (UniProt P53814) | inactive: 0.103 | inactive: -0.042 | inactive: -0.012 | inactive: -0.06 | inactive: 0.033 | inactive: 0.032 | inactive: 0.019 | inactive: 0.006 | inactive: 0.059 | inactive: 0.028 | inactive: -0.011 | inactive: 0.134 | inactive: -0.055 | inactive: -0.022 | inactive: 0.031 | inactive: -0.065 | inactive: -0.019 | inactive: 0.021 | inactive: -0.005 | inactive: 0.089 |
| SNRPE (UniProt P62304) | inactive: -0.027 | inactive: -0.033 | inactive: -0.036 | inactive: -0.077 | inactive: 0.039 | inactive: 0.07 | inactive: -0.006 | inactive: -0.006 | inactive: 0.014 | inactive: 0.1 | inactive: 0.021 | inactive: -0.016 | inactive: 0.037 | inactive: -0.017 | inactive: -0.003 | inactive: -0.073 | inactive: 0.001 | inactive: 0.014 | inactive: 0.006 | inactive: -0.041 |
| SMARCA4 (UniProt P51532) | inactive: -0.029 | inactive: -0.008 | inactive: -0.01 | inactive: -0.009 | inactive: -0.003 | inactive: -0.022 | inactive: 0.012 | inactive: 0.008 | inactive: -0.008 | inactive: 0.054 | inactive: -0.002 | inactive: 0.023 | inactive: -0.042 | inactive: -0.019 | inactive: 0.004 | inactive: -0.029 | inactive: -0.018 | inactive: 0.043 | inactive: 0.004 | inactive: -0.024 |
| SNRPC (UniProt Q5TAL2) | inactive: -0.046 | inactive: -0.096 | inactive: 0.024 | inactive: -0.063 | inactive: 0.012 | inactive: 0.213 | inactive: 0.121 | inactive: -0.038 | inactive: 0.113 | inactive: 0.078 | inactive: 0.122 | inactive: 0.034 | inactive: 0.048 | inactive: 0.053 | inactive: -0.018 | inactive: 0.002 | inactive: 0 | inactive: -0.023 | inactive: 0.017 | inactive: 0.008 |
| SNCA (UniProt P37840) | inactive: 0.137 | inactive: -0.014 | inactive: 0.127 | inactive: -0.101 | inactive: -0.005 | active: 0.456 | inactive: 0.016 | inactive: 0.196 | inactive: 0.098 | inactive: 0.073 | inactive: 0.148 | inactive: 0.075 | inactive: 0.128 | inactive: -0.032 | inactive: 0.019 | inactive: -0.031 | inactive: 0.159 | inactive: -0.112 | inactive: -0.049 | inactive: 0 |
| SMARCC1 (UniProt Q92922) | inactive: 0.007 | inactive: -0.022 | inactive: -0.028 | inactive: -0.033 | inactive: -0.017 | inactive: -0.016 | inactive: -0.018 | inactive: -0.025 | inactive: -0.015 | inactive: 0.029 | inactive: 0.014 | inactive: 0.01 | inactive: -0.007 | inactive: 0.027 | inactive: 0.005 | inactive: -0.004 | inactive: -0.006 | inactive: 0.025 | inactive: 0 | inactive: 0.012 |
| SMARCC2 (UniProt Q8TAQ2) | inactive: 0.002 | inactive: 0 | inactive: -0.011 | inactive: -0.012 | inactive: -0.002 | inactive: -0.039 | inactive: 0.003 | inactive: -0.003 | inactive: -0.048 | inactive: 0.034 | inactive: 0.002 | inactive: -0.01 | inactive: -0.037 | inactive: -0.018 | inactive: 0.025 | inactive: -0.017 | inactive: -0.011 | inactive: 0.021 | inactive: 0.014 | inactive: 0.002 |
| SNX9 (UniProt Q9Y5X1) | inactive: -0.001 | inactive: -0.014 | inactive: 0.003 | inactive: -0.006 | inactive: -0.017 | inactive: -0.033 | inactive: 0.002 | inactive: -0.003 | inactive: -0.031 | inactive: -0.005 | inactive: -0.006 | inactive: 0.003 | inactive: -0.001 | inactive: 0.012 | inactive: 0.002 | inactive: 0.007 | inactive: 0.023 | inactive: -0.007 | inactive: -0.028 | inactive: 0.007 |
| SMG8 isoform 2 (UniProt Q8ND04) | inactive: 0.008 | inactive: 0.023 | inactive: -0.051 | inactive: 0.099 | inactive: 0.001 | inactive: -0.111 | inactive: -0.036 | inactive: 0.006 | inactive: -0.038 | inactive: -0.056 | inactive: 0.025 | inactive: 0.013 | inactive: -0.037 | inactive: -0.027 | inactive: 0.064 | inactive: 0.032 | inactive: 0.02 | inactive: 0.032 | inactive: 0.007 | inactive: 0.002 |
| SMC1A (UniProt Q14683) | inactive: -0.003 | inactive: -0.001 | inactive: 0.008 | inactive: 0.046 | inactive: 0.012 | inactive: -0.006 | inactive: -0.001 | inactive: 0.01 | inactive: -0.036 | inactive: -0.008 | inactive: -0.023 | inactive: -0.01 | inactive: 0.004 | inactive: -0.01 | inactive: 0.023 | inactive: 0 | inactive: 0.012 | inactive: -0.003 | inactive: 0.004 | inactive: -0.002 |
| SNRPA1 (UniProt P09661) | inactive: 0.008 | inactive: -0.007 | inactive: 0.088 | inactive: -0.045 | inactive: 0.002 | inactive: 0.049 | inactive: 0.004 | inactive: -0.015 | inactive: 0.015 | inactive: 0.002 | inactive: 0.022 | inactive: -0.028 | inactive: 0.018 | inactive: -0.024 | inactive: -0.002 | inactive: 0.107 | inactive: 0.019 | inactive: -0.011 | inactive: 0 | inactive: -0.009 |
| SNU13 (UniProt P55769) | inactive: 0.041 | inactive: 0.022 | inactive: -0.007 | inactive: 0.049 | inactive: 0.006 | inactive: -0.026 | inactive: -0.015 | inactive: -0.016 | inactive: 0.007 | inactive: -0.015 | inactive: -0.007 | inactive: 0.015 | inactive: 0.017 | inactive: 0.044 | inactive: -0.012 | inactive: -0.013 | inactive: 0.04 | inactive: 0.008 | inactive: -0.034 | inactive: 0.041 |
| SNCG (UniProt O76070) | inactive: 0.043 | inactive: 0.023 | inactive: 0.047 | inactive: -0.018 | inactive: -0.033 | inactive: 0.125 | inactive: -0.033 | inactive: 0.031 | inactive: -0.002 | inactive: -0.008 | inactive: -0.014 | inactive: -0.011 | inactive: 0.05 | inactive: 0.009 | inactive: -0.022 | inactive: -0.012 | inactive: 0.033 | inactive: -0.062 | inactive: -0.057 | inactive: 0.007 |

A different layout for part of the listing above:
Target | log2 fold change (lapatinib) | log2 fold change (pictilisib) | log2 fold change (crizotinib) | log2 fold change [1] | log2 fold change (duvelisib) | log2 fold change (gandotinib) | log2 fold change (tozasertib) | log2 fold change (doramapimod) | log2 fold change (bafetinib) | log2 fold change [2] | log2 fold change (nilotinib) | log2 fold change [3] | log2 fold change (dasatinib) | log2 fold change [4] | log2 fold change [5] | log2 fold change (quisinostat) | log2 fold change (tipifarnib) | log2 fold change [6] | log2 fold change [7] | log2 fold change [8]
SMARCC1 (UniProt Q92922) | inactive: 0.007 | inactive: -0.022 | inactive: -0.028 | inactive: -0.033 | inactive: -0.017 | inactive: -0.016 | inactive: -0.018 | inactive: -0.025 | inactive: -0.015 | inactive: 0.029 | inactive: 0.014 | inactive: 0.01 | inactive: -0.007 | inactive: 0.027 | inactive: 0.005 | inactive: -0.004 | inactive: -0.006 | inactive: 0.025 | inactive: 0 | inactive: 0.012
SMARCC2 (UniProt Q8TAQ2) | inactive: 0.002 | inactive: 0 | inactive: -0.011 | inactive: -0.012 | inactive: -0.002 | inactive: -0.039 | inactive: 0.003 | inactive: -0.003 | inactive: -0.048 | inactive: 0.034 | inactive: 0.002 | inactive: -0.01 | inactive: -0.037 | inactive: -0.018 | inactive: 0.025 | inactive: -0.017 | inactive: -0.011 | inactive: 0.021 | inactive: 0.014 | inactive: 0.002
